{"source": "PubChem BioAssay AID1671195 (Yale University, 2021)", "aim": "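Knockdowns that increase or decrease uptake of fluorescent LDL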 (primary screen)", "system": "human Huh7 hepatoma cells", "knock-down reagent": "siRNA pool against human genes, 18 nM", "timing": "about 2 to 2.5 days of knockdown, then 8 h LDL uptake", "conditions": "DiI-labelled LDL at 30 µg/ml for 8 h, in lipoprotein-deficient serum medium", "measurement": "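Fluorescent LDL signal imaged in cells, scaled to the plate median, robust z-score for each replicate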", "scale": "robust z-score: higher = more LDL uptake after knockdown", "call rule": "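Active when two or more replicates show a robust z-score above 2 or below -2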", "note": "In all, the deposit lists about 22,000 reagents; shown is a part drawn at random. Of all reagents, about 1,510 (6.9%) got an active call. 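Active includes knockdowns raising or lowering LDL uptake; positive z-scores mean more uptake, negative mean less.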"}
{"Gene": "TTK (GeneID 7272)", "PubChem SID": "SID442899911", "robust z-score, replicate 1": -0.585, "robust z-score, replicate 2": -0.682, "robust z-score, replicate 3": -0.791, "call": "inactive"}
{"Gene": "PTPN18 (GeneID 26469)", "PubChem SID": "SID442896896", "robust z-score, replicate 1": -0.0369, "robust z-score, replicate 2": -0.857, "robust z-score, replicate 3": -0.0787, "call": "inactive"}
{"Gene": "GADL1 (GeneID 339896)", "PubChem SID": "SID442899983", "robust z-score, replicate 1": -1.39, "robust z-score, replicate 2": 0.0779, "robust z-score, replicate 3": -0.772, "call": "inactive"}
{"Gene": "SFTA2 (GeneID 389376)", "PubChem SID": "SID442886193", "robust z-score, replicate 1": 0.419, "robust z-score, replicate 2": 2.04, "robust z-score, replicate 3": 1.25, "call": "inactive"}
{"Gene": "KLF6 (GeneID 1316)", "PubChem SID": "SID442884358", "robust z-score, replicate 1": -2.19, "robust z-score, replicate 2": -1.89, "robust z-score, replicate 3": -1.91, "call": "active"}
{"Gene": "SIX4 (GeneID 51804)", "PubChem SID": "SID442898631", "robust z-score, replicate 1": -0.739, "robust z-score, replicate 2": -0.528, "robust z-score, replicate 3": -0.296, "call": "inactive"}
{"Gene": "NCLN (GeneID 56926)", "PubChem SID": "SID442883672", "robust z-score, replicate 1": 2.58, "robust z-score, replicate 2": 1.29, "robust z-score, replicate 3": 3.57, "call": "active"}
{"Gene": "ADGRA1 (GeneID 84435)", "PubChem SID": "SID442887953", "robust z-score, replicate 1": 0.196, "robust z-score, replicate 2": 1.77, "robust z-score, replicate 3": 0.46, "call": "inactive"}
{"Gene": "CAPZA3 (GeneID 93661)", "PubChem SID": "SID442898932", "robust z-score, replicate 1": -0.61, "robust z-score, replicate 2": -0.578, "robust z-score, replicate 3": -0.479, "call": "inactive"}
{"Gene": "FER1L6-AS1 (GeneID 439941)", "PubChem SID": "SID442897541", "robust z-score, replicate 1": -0.518, "robust z-score, replicate 2": -0.162, "robust z-score, replicate 3": -0.513, "call": "inactive"}
{"Gene": "CHRDL2 (GeneID 25884)", "PubChem SID": "SID442891797", "robust z-score, replicate 1": -0.0871, "robust z-score, replicate 2": 0.389, "robust z-score, replicate 3": 0.43, "call": "inactive"}
{"Gene": "RBP5 (GeneID 83758)", "PubChem SID": "SID442896196", "robust z-score, replicate 1": -0.227, "robust z-score, replicate 2": -0.265, "robust z-score, replicate 3": -0.251, "call": "inactive"}

Entries listed so far whose gene name begins with C or c (2):
{"Gene": "CAPZA3 (GeneID 93661)", "PubChem SID": "SID442898932", "robust z-score, replicate 1": -0.61, "robust z-score, replicate 2": -0.578, "robust z-score, replicate 3": -0.479, "call": "inactive"}
{"Gene": "CHRDL2 (GeneID 25884)", "PubChem SID": "SID442891797", "robust z-score, replicate 1": -0.0871, "robust z-score, replicate 2": 0.389, "robust z-score, replicate 3": 0.43, "call": "inactive"}
